The source of these data is PubChem BioAssay AID330 (DTP/NCI, 2004).

This experiment has as its system P388 leukemia ip, CD2F1 mice, survival T/C. The experiment is described as follows: NCI In Vivo Anticancer Drug Screen. Data for tumor model P388 Leukemia (intraperitoneal) in CD2F1 (CDF1) mice. Conditions: T/C endpoint: median survival time, higher T/C = longer survival.
[1] abbreviates: dose: 100.0 mg/kg/injection, schedule: Q01DX009 (ip), vehicle: saline with Tween-80.
Setting [2] is: dose: 200.0 mg/kg/injection, schedule: Q01DX009 (ip), vehicle: saline with Tween-80.
[3] abbreviates: dose: 400.0 mg/kg/injection, schedule: Q01DX009 (ip), vehicle: saline with Tween-80.
[4] abbreviates: dose: 25.0 mg/kg/injection, schedule: Q01DX009 (ip), vehicle: Klucel (hydroxypropylcellulose) (HPC).
The mark [5] stands for this setting: dose: 50.0 mg/kg/injection, schedule: Q01DX009 (ip), vehicle: Klucel (hydroxypropylcellulose) (HPC).
Where [6] appears, read: dose: 100.0 mg/kg/injection, schedule: Q01DX009 (ip), vehicle: Klucel (hydroxypropylcellulose) (HPC).
Where [7] appears, read: dose: 200.0 mg/kg/injection, schedule: Q01DX009 (ip), vehicle: Klucel (hydroxypropylcellulose) (HPC).
[8] abbreviates: dose: 25.0 mg/kg/injection, schedule: Q01DX005 (ip), vehicle: saline with Tween-80.
Where [9] appears, read: dose: 50.0 mg/kg/injection, schedule: Q01DX005 (ip), vehicle: saline with Tween-80.
Setting [10] is: dose: 100.0 mg/kg/injection, schedule: Q01DX005 (ip), vehicle: saline with Tween-80.
The mark [11] stands for this setting: dose: 30.0 mg/kg/injection, schedule: Q01DX009 (ip), vehicle: saline with Tween-80.
Setting [12] is: dose: 60.0 mg/kg/injection, schedule: Q01DX009 (ip), vehicle: saline with Tween-80.

The list does not hold the whole screen: it is rich in T/C values a quarter to a half above the control, in often repeated tests (any T/C) and in doses without a T/C. Further doses and runs are listed elsewhere. T/C: endpoint of the treated group in % of that of the vehicle group. Some doses have a count of surviving animals in place of a T/C: the source holds a T/C of zero for them, seemingly a mark for toxic or unscored doses. Some survivor counts are full or nearly so, which does not show that the dose was tolerated: the source hardly ever lists a survival T/C far under the control, and the zero likely stands for such cases as well. Survivors were counted at the toxicity check, usually on the fifth day, unless a day is given; later deaths do not show. Schedule codes are those of the source, taken here to give the interval after Q, in days (D) or hours (H), and the number of doses after X. For survival time, this PubChem deposit counts one and a half times the control or more as active, and values a quarter to a half above the control carry no call in these data; other NCI protocols may use other cut-offs. Some entries were tested several times; the values are given in rising order. Some T/C values carry the count of animals alive at the toxicity check (mostly the fifth day); where none is given, no animal had died by that day.

As for `CN(C)c1ncnc2c1ncn2C1OC(CO)C(N)C1O` (centres undefined), the T/C (dose: 33.0 mg/kg/injection, schedule: Q01DX009 (ip), vehicle: saline sonified) was 131 % of control [5 of 6 alive]; the T/C (dose: 50.0 mg/kg/injection, schedule: Q01DX009 (ip), vehicle: saline sonified) was 136 % of control; the T/C (dose: 50.0 mg/kg/injection, schedule: Q01DX009 (ip), vehicle: saline with Tween-80) was 127 % of control. In addition, the survivor count is 6 of 6 under setting [1]; 5 of 6 (dose: 100.0 mg/kg/injection, schedule: Q01DX009 (ip), vehicle: saline); 4 of 6 under setting [2]; 2 of 6 under setting [3].
As for `CCN(CC)c1nc(N(CC)CC)nc(N(CC)CC)n1`, the survivor count under setting [3] is given as 10 of 10.
On to `O=[N+]([O-])c1cccc(OCCOc2ccccc2)c1`, for which the survivor count (dose: 400.0 mg/kg/injection, schedule: Q01DX009 (ip), vehicle: other) is on record as 3 of 6.
For `CN(C)CCNCCN`, under “dose: 200.0 mg/kg/injection, schedule: Q01DX005 (ip), vehicle: saline”, the survivor count is listed as 6 of 6.
As to `C=CCNC(=O)c1cc(N2CC2)c([N+](=O)[O-])cc1[N+](=O)[O-]`, the survivor count was 6 of 6 (dose: 12.5 mg/kg/injection, schedule: Q01DX009 (ip), vehicle: Klucel (hydroxypropylcellulose) (HPC)); 6 of 6 under setting [4]; 6 of 6 under setting [5]; 6 of 6 under setting [6]; 0 of 6 under setting [7]. In addition, the T/C is, setting by setting: under setting [4], 97, 100, 101 % of control; under setting [5], 98, 101 [5 of 6 alive], 151 % of control; under setting [6], 99 [4 of 6 alive], 115, 131 % of control.
On to `CN1CCN(CCCN(c2cccc(C(F)(F)F)c2)c2cccc(C(F)(F)F)c2)CC1`, for which the survivor count by setting is: (dose: 100.0 mg/kg/injection, schedule: Q01DX001 (ip), vehicle: Klucel (hydroxypropylcellulose) (HPC)) 0 of 6; (dose: 200.0 mg/kg/injection, schedule: Q01DX001 (ip), vehicle: Klucel (hydroxypropylcellulose) (HPC)) 0 of 6; (dose: 400.0 mg/kg/injection, schedule: Q01DX001 (ip), vehicle: Klucel (hydroxypropylcellulose) (HPC)) 0 of 6.
Consider `CCOC(=O)Nc1cc2c(c(N)n1)N=C(c1ccc(C)c(C)c1)CN2`, for which the T/C (dose: 6.25 mg/kg/injection, schedule: Q01DX005 (ip), vehicle: saline with Tween-80) was 127 % of control and the T/C (dose: 12.5 mg/kg/injection, schedule: Q01DX005 (ip), vehicle: saline with Tween-80) was 144 % of control. The survivor count is on record as 5 of 5 under setting [8] and 2 of 5 under setting [9].
As to `COc1ccc2cc1-c1cc(ccc1O)CCC(O)CC1CCCC(CC(O)CC2)N1` (centres undefined), the survivor count was 5 of 6 (dose: 60.0 mg/kg/injection, schedule: Q01DX009 (ip), vehicle: Klucel (hydroxypropylcellulose) (HPC)) and 0 of 6 (dose: 120.0 mg/kg/injection, schedule: Q01DX009 (ip), vehicle: Klucel (hydroxypropylcellulose) (HPC)).
With `O=C(/C=C/c1cccnc1)/C=C/c1cccnc1`, under setting [6], the survivor count is recorded as 1 of 6.
`COc1ccc(Cc2nnc3nc(OC)c(-c4ccc(OC)cc4)n3n2)cc1`: under setting [10], the survivor count was 6 of 6.
In the case of `C=C1C(=O)OC2C(O)CCCC12` (centres undefined), where the note is “dose: 200.0 mg/kg/injection, schedule: Q04DX003 (ip), vehicle: Klucel (hydroxypropylcellulose) (HPC)”, the survivor count is listed as 3 of 6.
`NNC(=O)CCc1ccccc1Br`: the survivor count under setting [2] is 4 of 6.
Regarding `CC(C)c1oc(=O)cc2c1[C@@H](O)[C@H]1OC(=O)[C@@]3(C)[C@@H](O)[C@H]4O[C@H]4[C@@]2(C)[C@@H]13`, the survivor count is, setting by setting: (dose: 3.75 mg/kg/injection, schedule: Q01DX001 (ip), vehicle: saline with Tween-80) 0 of 6; (dose: 15.0 mg/kg/injection, schedule: Q01DX001 (ip), vehicle: saline with Tween-80) 1 of 6; (dose: 30.0 mg/kg/injection, schedule: Q01DX001 (ip), vehicle: saline with Tween-80) 0 of 6; under setting [11], 3 of 6; under setting [12], 0 of 6; (dose: 120.0 mg/kg/injection, schedule: Q01DX009 (ip), vehicle: saline with Tween-80) 0 of 3. Besides, the T/C by setting is: (dose: 7.5 mg/kg/injection, schedule: Q01DX001 (ip), vehicle: saline with Tween-80) 102, 107, 112, 120 % of control; (dose: 20.0 mg/kg/injection, schedule: Q01DX009 (ip), vehicle: saline with Tween-80) 125 % of control; under setting [11], 129 % of control; (dose: 40.0 mg/kg/injection, schedule: Q01DX009 (ip), vehicle: saline with Tween-80) 145 % of control; under setting [12], 129 % of control.
Consider `O=C([CH-]C(=O)C(F)(F)F)C(F)(F)F.O=C([CH-]C(=O)C(F)(F)F)C(F)(F)F.O=C([CH-]C(=O)C(F)(F)F)C(F)(F)F.[Ru+3]`, for which the survivor count by setting is: (dose: 30.0 mg/kg/injection, schedule: Q01DX005 (ip), vehicle: Klucel (hydroxypropylcellulose) (HPC)) 6 of 6; (dose: 60.0 mg/kg/injection, schedule: Q01DX005 (ip), vehicle: Klucel (hydroxypropylcellulose) (HPC)) 2 of 6; (dose: 120.0 mg/kg/injection, schedule: Q01DX005 (ip), vehicle: Klucel (hydroxypropylcellulose) (HPC)) 0 of 6; (dose: 240.0 mg/kg/injection, schedule: Q01DX005 (ip), vehicle: Klucel (hydroxypropylcellulose) (HPC)) 0 of 6.
Consider `COc1ccc(-c2nn(C)c3c2C(=O)CCC3)cc1OC`, for which, under “dose: 400.0 mg/kg/injection, schedule: Q04DX003 (ip), vehicle: Klucel (hydroxypropylcellulose) (HPC)”, the survivor count is given as 3 of 6.
Turning to `COc1cc(OC)c(/C=N/Nc2cc(C)nc3cc4c(cc23)OCO4)c(OC)c1`, the survivor count reads like this: (dose: 50.0 mg/kg/injection, schedule: Q01DX005 (ip), vehicle: Klucel (hydroxypropylcellulose) (HPC)) 0 of 6; (dose: 100.0 mg/kg/injection, schedule: Q01DX005 (ip), vehicle: Klucel (hydroxypropylcellulose) (HPC)) 0 of 6; (dose: 200.0 mg/kg/injection, schedule: Q01DX005 (ip), vehicle: Klucel (hydroxypropylcellulose) (HPC)) 0 of 6.
In the case of `COc1cc(C(=O)OC2c3ccccc3CCC2N(C)C)cc(OC)c1OC` (centres undefined), the survivor count under setting [1] is recorded as 3 of 6 and the survivor count under setting [2] is 2 of 6.
On to `COc1ccc(Cc2cc3c(cc2OCC(N)=O)OCO3)cc1`, for which the survivor count is 6 of 6 under setting [8]; 6 of 6 under setting [9]; 6 of 6 under setting [10]; 6 of 6 (dose: 200.0 mg/kg/injection, schedule: Q01DX005 (ip), vehicle: saline with Tween-80).
Turning to `Fc1cccc(NC(=S)SCc2ccc(Cl)cc2)c1`, the survivor count is reported as 6 of 6 (dose: 50.0 mg/kg/injection, schedule: Q01DX009 (ip), vehicle: suspension in saline) and 5 of 6 (dose: 200.0 mg/kg/injection, schedule: Q01DX009 (ip), vehicle: suspension in saline).
As to `Cn1c2ccccc2c2nnc(N/N=C/c3ccncc3)nc21`, the survivor count runs as follows: (dose: 100.0 mg/kg/injection, schedule: Q04DX002 (ip), vehicle: saline with Tween-80) 6 of 6; (dose: 200.0 mg/kg/injection, schedule: Q04DX002 (ip), vehicle: saline with Tween-80) 6 of 6.
For the compound `NC(=O)c1ccnn1C1OC(CO)C(O)C1O` (centres undefined), where the note is “dose: 128.0 mg/kg/injection, schedule: Q01DX002 (ip), vehicle: saline”, the survivor count is 2 of 4.
For `Cc1[nH]c(C)c(Br)c(=O)c1F`, the survivor count runs as follows: under setting [5], 3 of 6; under setting [6], 0 of 6; under setting [7], 0 of 6.
